These are yes or no findings as the source states them, for the method shown. Binding seen in cells or lysates may run through a third protein. Some binding calls cover weakened binding; strength is not graded here. Where a sequence is shown, tags or fusion partners need not be part of it.
Molecular target: AKT1 (UniProt P31749)
Test: co-immunoprecipitation (anti-Flag and anti-AKT) with immunoblot

Amino acid sequences for entries named in this document (tags omitted).
UniProt P31749: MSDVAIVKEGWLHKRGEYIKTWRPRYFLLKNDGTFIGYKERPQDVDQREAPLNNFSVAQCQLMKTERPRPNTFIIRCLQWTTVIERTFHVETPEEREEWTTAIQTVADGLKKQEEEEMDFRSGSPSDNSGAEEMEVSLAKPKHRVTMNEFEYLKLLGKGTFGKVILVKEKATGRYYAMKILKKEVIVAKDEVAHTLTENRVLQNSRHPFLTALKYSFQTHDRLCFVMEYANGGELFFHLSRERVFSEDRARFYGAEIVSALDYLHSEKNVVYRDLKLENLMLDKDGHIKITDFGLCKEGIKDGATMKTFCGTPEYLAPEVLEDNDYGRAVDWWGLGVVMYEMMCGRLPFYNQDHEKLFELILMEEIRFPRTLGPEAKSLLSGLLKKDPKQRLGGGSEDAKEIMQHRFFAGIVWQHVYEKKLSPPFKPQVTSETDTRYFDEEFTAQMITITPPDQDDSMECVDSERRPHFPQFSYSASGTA

- binding: binds
B1: Flag-tagged thymidine kinase 1 (TK1) (enzyme, human, UniProt P04183 1-234, looked up)
chain: MSCINLPTVLPGSPSKTRGQIQVILGPMFSGKSTELMRRVRRFQIAQYKCLVIKYAKDTRYSSSFCTHDRNTMEALPACLLRDVAQEALGVAVIGIDEGQFFPDIVEFCEAMANAGKTVIVAALDGTFQRKPFGAILNLVPLAESVVKLTAVCMECFREAAYTKRLGTEKEVEVIGGADKYHSVCRLCYFKKASGQPAGPDNKENCPVPGKPGEAVAARKLFAPQQILQCSPAN

Source: patent US20110206689A1, “Molecular Determinants Associated With Prostate Cancer And Methods Of Use Thereof” (Dana-Farber Cancer Institute, Inc., priority 2010, published 2011)
